Publication PMC7577436
No constants are given. Whether binding was seen depends on the method and setting. In cells and extracts the contact can be indirect. Here binding means that the protein was enriched with, or labelled near, the bait; the list need not be complete.

Target: HPV16 L2 minor capsid protein with a C-terminal 3xFLAG tag, in the pseudovirus WT HPV16.L2F (HPV16) (UniProt P03107)
Assay: affinity purification with mass spectrometry; HeLa cells infected with WT HPV16.L2F for 16 hrs, lysed in 1% Triton X-100 HN buffer; FLAG M2 antibody, protein G magnetic beads, elution with 3xFLAG peptide; control: uninfected extract mixed with purified PsV; data from Inoue et al., 2018

B1: p120 catenin (protein, UniProt O60716 1-968)
chain: MDDSEVESTASILASVKEQEAQFEKLTRALEEERRHVSAQLERVRVSPQDANPLMANGTLTRRHQNGRFVGDADLERQKFSDLKLNGPQDHSHLLYSTIPRMQEPGQIVETYTEEDPEGAMSVVSVETSDDGTTRRTETTVKKVVKTVTTRTVQPVAMGPDGLPVDASSVSNNYIQTLGRDFRKNGNGGPGPYVGQAGTATLPRNFHYPPDGYSRHYEDGYPGGSDNYGSLSRVTRIEERYRPSMEGYRAPSRQDVYGPQPQVRVGGSSVDLHRFHPEPYGLEDDQRSMGYDDLDYGMMSDYGTARRTGTPSDPRRRLRSYEDMIGEEVPSDQYYWAPLAQHERGSLASLDSLRKGGPPPPNWRQPELPEVIAMLGFRLDAVKSNAAAYLQHLCYRNDKVKTDVRKLKGIPVLVGLLDHPKKEVHLGACGALKNISFGRDQDNKIAIKNCDGVPALVRLLRKARDMDLTEVITGTLWNLSSHDSIKMEIVDHALHALTDEVIIPHSGWEREPNEDCKPRHIEWESVLTNTAGCLRNVSSERSEARRKLRECDGLVDALIFIVQAEIGQKDSDSKLVENCVCLLRNLSYQVHREIPQAERYQEAAPNVANNTGPHAASCFGAKKGKDEWFSRGKKPIEDPANDTVDFPKRTSPARGYELLFQPEVVRIYISLLKESKTPAILEASAGAIQNLCAGRWTYGRYIRSALRQEKALSAIADLLTNEHERVVKAASGALRNLAVDARNKELIGKHAIPNLVKNLPGGQQNSSWNFSEDTVISILNTINEVIAENLEAAKKLRETQGIEKLVLINKSGNRSEKEVRAAALVLQTIWGYKELRKPLEKEGWKKSDFQVNLNNASRSQSSHSYDDSTLPLIDRNQKSDKKPDREEIQMSNMGSNTKSLDNNYSTPNERGDHNRTLDRSGDLGDMEPLKGTTPLMQDEGQESLEEELDVLVLDDEGGQVSYPSMQKI
Q: Which binding does the source give for B1 here?
A: binds
